Results as given in PMC7819943, “Rice protein-binding microarrays: a tool to detect cis-acting elements near promoter regions in rice”.
Some of the results follow.

Each sequence was assayed against T1, OsSMF1 (Oryza sativa, UniProt Q6ZLB0 1-436) (assay: protein-binding microarray (RPBM); PBS, 2% BSA, 51.3 ng/ul salmon testes DNA, 50 uM zinc acetate, 200 nM TF, 25 C, 1 h; high values mean tight binding). Conditions: protein: recombinant; tags: N-terminal polyhistidine and DsRed monomer fusion (pET32a); chain copies: 2; label: CyDye5-dUTP incorporated in the synthesized complementary strand; 3' TTTTT single-stranded linker to array surface; dsDNA, one strand shown.
T1 sequence: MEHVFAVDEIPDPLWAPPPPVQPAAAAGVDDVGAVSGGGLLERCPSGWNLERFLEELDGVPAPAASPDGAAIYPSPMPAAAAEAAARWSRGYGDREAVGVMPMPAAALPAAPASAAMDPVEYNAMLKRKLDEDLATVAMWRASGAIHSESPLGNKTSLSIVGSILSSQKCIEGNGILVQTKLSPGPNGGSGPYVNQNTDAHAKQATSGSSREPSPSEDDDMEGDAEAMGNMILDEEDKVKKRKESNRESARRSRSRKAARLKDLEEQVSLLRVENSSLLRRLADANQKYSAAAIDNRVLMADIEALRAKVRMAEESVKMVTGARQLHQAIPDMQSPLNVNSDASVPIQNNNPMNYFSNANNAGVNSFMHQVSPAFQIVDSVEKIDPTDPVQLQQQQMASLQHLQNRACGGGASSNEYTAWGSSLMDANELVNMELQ
In short: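 The binding signal for each feature is its fluorescence intensity in arbitrary units. An Axon 4000B scanner was used to read a custom Agilent array that had been made double-stranded with Cy5-dUTP primer extension, blocked with 2% BSA, incubated at 25 °C for 1 h with 200 nM protein in PBS, 2% BSA, salmon testes DNA and 50 µM zinc acetate, and washed. The protein was an N-terminal polyhistidine–DsRed transcription factor fusion from E. coli BL21-CodonPlus, purified on Ni–NTA.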

| Sequence | binding signal |
| --- | --- |
| ATCCCTCAAATTCCCGTGCGACACGTCTGCTGCTTCCATCCGGAGTCACCTAGTGCAG | 6600 fluorescence intensity (a.u.) |
| CCGTTCAGTGACGATAAAGTCAGTGTTACCAAGTCATTCCCGGAGTCACCTAGTGCAG | 3340 fluorescence intensity (a.u.) |
| TTTTAGCCAGCGAAATGCCACGTCATCATTTATGAGGGCACGGAGTCACCTAGTGCAG | 14100 fluorescence intensity (a.u.) |
| ACGTTTACTCCCAGTACACACAAGACACTACTAGCTTAGACGGAGTCACCTAGTGCAG | 3420 fluorescence intensity (a.u.) |
| ATGACACATGGTGAAGATACACGTTGAAACATGTCACTGTCGGAGTCACCTAGTGCAG | 34000 fluorescence intensity (a.u.) |
| AAATACTACTCTTTACTGTATATAGTATGATTTAACTCATCGGAGTCACCTAGTGCAG | 28800 fluorescence intensity (a.u.) |
| GTGCTGGCCAAATGGGCCGGGCCAAGGCCTCGGTAACCACCGGAGTCACCTAGTGCAG | 42300 fluorescence intensity (a.u.) |
| GGCGGCGGAGGTGTCTCCGGCGGAGGCCGAGTCAGCGGCGCGGAGTCACCTAGTGCAG | 3500 fluorescence intensity (a.u.) |
| CAAAAGGACCATGGTGTGTGGATGACATGACTAGTGAGGCCGGAGTCACCTAGTGCAG | 4650 fluorescence intensity (a.u.) |
| GTAGTCATCCATGATCCATGCTTGTACGTGTGCTAGTGCTCGGAGTCACCTAGTGCAG | 3430 fluorescence intensity (a.u.) |
| GCGGCGGCGGCGGCGGCGGTGTCGTCACCGTCGCGTTCCCCGGAGTCACCTAGTGCAG | 5670 fluorescence intensity (a.u.) |
| CGCCGCGTGATTCCGTGGCATACTGCCATGGATGGCTGCTCGGAGTCACCTAGTGCAG | 25800 fluorescence intensity (a.u.) |
| GGTGTCTTGTCCGGCTGCGTCACGCAACCGGTGCCCAATGCGGAGTCACCTAGTGCAG | 10400 fluorescence intensity (a.u.) |
| TCGGGTGAGCGAGTGAGTGGGCGAGGAGGCGCGGCGGCGGCGGAGTCACCTAGTGCAG | 3800 fluorescence intensity (a.u.) |
| CGCAGCCGTCGATTCCTCCTACGTGGCTCAATCCCATCCGCGGAGTCACCTAGTGCAG | 11500 fluorescence intensity (a.u.) |
| ATAACCACAATAGTTATGACTGTACTACTTACTCTTTATACGGAGTCACCTAGTGCAG | 5860 fluorescence intensity (a.u.) |
| GCACGATCCATCCATCCACGCCACGCTGAATACTTCGCTCCGGAGTCACCTAGTGCAG | 3230 fluorescence intensity (a.u.) |
| GTCCCTTGCTGTCAGCAGACTTCATTATATTTCAACAATGCGGAGTCACCTAGTGCAG | 4050 fluorescence intensity (a.u.) |
| CAGGCGGCTGGGCCTAGCTGTCAGTGACACGTCAGAGCGCCGGAGTCACCTAGTGCAG | 12000 fluorescence intensity (a.u.) |
| TTGTAAGTTGGATGATGCGTCATATCTAGTTTTACGGTTGCGGAGTCACCTAGTGCAG | 8270 fluorescence intensity (a.u.) |
| AACCCATGTCATCAATGTTGAGCTGTCCCGTGATTTGTTCCGGAGTCACCTAGTGCAG | 6620 fluorescence intensity (a.u.) |

Reformatted: results already given.
CGCAGCCGTCGATTCCTCCTACGTGGCTCAATCCCATCCGCGGAGTCACCTAGTGCAG
  binding signal = 11500 fluorescence intensity (a.u.)
ATAACCACAATAGTTATGACTGTACTACTTACTCTTTATACGGAGTCACCTAGTGCAG
  binding signal = 5860 fluorescence intensity (a.u.)
GCACGATCCATCCATCCACGCCACGCTGAATACTTCGCTCCGGAGTCACCTAGTGCAG
  binding signal = 3230 fluorescence intensity (a.u.)
GTCCCTTGCTGTCAGCAGACTTCATTATATTTCAACAATGCGGAGTCACCTAGTGCAG
  binding signal = 4050 fluorescence intensity (a.u.)

The list continues:

| Sequence | binding signal |
| --- | --- |
| CTGCTGATGCCATGCCACACCTGAGGTCATCCGCTCGCGCCGGAGTCACCTAGTGCAG | 5540 fluorescence intensity (a.u.) |
| GGAACATGTATGCACCGAACCTGGTGCATGTCCACGTTCACGGAGTCACCTAGTGCAG | 3740 fluorescence intensity (a.u.) |
| GCATTGTAGCTAGGGGCCTATTGTAGACCTTATGAGTTTTCGGAGTCACCTAGTGCAG | 4860 fluorescence intensity (a.u.) |
| GTCGCCGGACATCCTCAGGGACGACCGCTTCGCCGTCCGCCGGAGTCACCTAGTGCAG | 24300 fluorescence intensity (a.u.) |
| TTGTTGTGGAATGATTCATAGATCCGTCCTCCTTTACTGTCGGAGTCACCTAGTGCAG | 3360 fluorescence intensity (a.u.) |
| CCCTTTACGAATCACGAGTATTTTGTGAATCATGGGAGTACGGAGTCACCTAGTGCAG | 3470 fluorescence intensity (a.u.) |
| AGCTGCATATGCTACACGCATTGTTAGTTTGCATGCAAGCCGGAGTCACCTAGTGCAG | 4090 fluorescence intensity (a.u.) |
| CGCAGCACGCACGCACGCAGACACGCCCACGCGTTGCGGCCGGAGTCACCTAGTGCAG | 3550 fluorescence intensity (a.u.) |
| TGGTGCCATGTCCGTGCATTCACAGCAGTGTTTGTTATTCCGGAGTCACCTAGTGCAG | 3810 fluorescence intensity (a.u.) |
| CAGTAGAGCTGTAGAGCACACATCATTCTCGTTCTCCTCCCGGAGTCACCTAGTGCAG | 3630 fluorescence intensity (a.u.) |
| TATGCATGAGAATGACACGTGGAGCATAGCCGAGCCTCCACGGAGTCACCTAGTGCAG | 7820 fluorescence intensity (a.u.) |
| GCGTTTGCCAGCCGGCCGCCTGCCATTGTGCCTTTCTGCGCGGAGTCACCTAGTGCAG | 3310 fluorescence intensity (a.u.) |
| CCACCGGAGCTGGGACAGCTGACACAGCTGCGGTGGCTGACGGAGTCACCTAGTGCAG | 3430 fluorescence intensity (a.u.) |
| GCACAGTAAGTCATGCCCACGTGGGCCACAAACTAGCTAGCGGAGTCACCTAGTGCAG | 10500 fluorescence intensity (a.u.) |
| CCAAAACAAACAAAGCAAGAGCGAAGATGAACACAATATCCGGAGTCACCTAGTGCAG | 4090 fluorescence intensity (a.u.) |
| CGCTCCTCGCCGCCTTGAACCTCACAGCGAAACCTGATCACGGAGTCACCTAGTGCAG | 3270 fluorescence intensity (a.u.) |
| TTTTCAATTGTACATTGAGTCATTGACAATGCACAATTTACGGAGTCACCTAGTGCAG | 3680 fluorescence intensity (a.u.) |
| GCGGCGCCATCGACAGAAAGAGCAGAATCTAGCATGCACGCGGAGTCACCTAGTGCAG | 5420 fluorescence intensity (a.u.) |
| ATAATTAGTCGTGTGCATCACCGTCATCTGGTATCTCTTGCGGAGTCACCTAGTGCAG | 7000 fluorescence intensity (a.u.) |
| GCTCCATGGAAGCATGGAAGATGGAACATGACGTAAAATCCGGAGTCACCTAGTGCAG | 3390 fluorescence intensity (a.u.) |
| ACAAAAGATAATCCACGTCTTCATAGCGTAAAATTTAAGGCGGAGTCACCTAGTGCAG | 3330 fluorescence intensity (a.u.) |
